This is an account of results in paper PMC4303145.

The chains behind the UniProt entries cited, without tags or fusion partners. Where a name states a change or a piece, a line headed by the entry shows the natural chain unless it says otherwise.
UniProt P18206: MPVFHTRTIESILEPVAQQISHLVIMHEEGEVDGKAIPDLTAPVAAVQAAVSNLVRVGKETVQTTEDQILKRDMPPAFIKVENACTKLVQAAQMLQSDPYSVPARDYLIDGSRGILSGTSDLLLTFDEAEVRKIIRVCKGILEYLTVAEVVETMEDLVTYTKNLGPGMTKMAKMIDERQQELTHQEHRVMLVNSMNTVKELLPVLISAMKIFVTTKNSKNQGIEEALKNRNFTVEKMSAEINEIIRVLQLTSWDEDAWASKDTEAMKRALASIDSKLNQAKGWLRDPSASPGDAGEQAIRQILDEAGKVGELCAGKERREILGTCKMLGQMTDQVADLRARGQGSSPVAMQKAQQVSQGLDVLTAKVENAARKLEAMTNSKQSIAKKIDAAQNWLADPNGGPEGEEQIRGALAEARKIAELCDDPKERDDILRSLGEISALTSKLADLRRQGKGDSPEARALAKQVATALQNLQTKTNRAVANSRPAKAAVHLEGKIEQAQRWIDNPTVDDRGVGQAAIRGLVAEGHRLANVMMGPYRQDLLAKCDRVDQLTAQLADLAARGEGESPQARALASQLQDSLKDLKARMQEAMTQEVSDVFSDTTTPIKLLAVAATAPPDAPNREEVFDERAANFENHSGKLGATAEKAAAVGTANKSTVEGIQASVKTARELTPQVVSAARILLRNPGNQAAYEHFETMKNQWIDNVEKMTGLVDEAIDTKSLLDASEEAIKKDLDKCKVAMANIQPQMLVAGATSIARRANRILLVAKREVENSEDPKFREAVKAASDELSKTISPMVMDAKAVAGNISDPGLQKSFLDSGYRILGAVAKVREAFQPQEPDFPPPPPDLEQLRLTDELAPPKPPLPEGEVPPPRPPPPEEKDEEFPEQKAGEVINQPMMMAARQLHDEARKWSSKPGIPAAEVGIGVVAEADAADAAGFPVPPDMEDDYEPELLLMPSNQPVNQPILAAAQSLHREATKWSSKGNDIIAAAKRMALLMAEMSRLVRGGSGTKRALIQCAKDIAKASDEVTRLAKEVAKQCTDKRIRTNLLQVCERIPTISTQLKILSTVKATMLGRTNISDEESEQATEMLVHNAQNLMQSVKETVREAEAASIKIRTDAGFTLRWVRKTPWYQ
UniProt Q8TED9: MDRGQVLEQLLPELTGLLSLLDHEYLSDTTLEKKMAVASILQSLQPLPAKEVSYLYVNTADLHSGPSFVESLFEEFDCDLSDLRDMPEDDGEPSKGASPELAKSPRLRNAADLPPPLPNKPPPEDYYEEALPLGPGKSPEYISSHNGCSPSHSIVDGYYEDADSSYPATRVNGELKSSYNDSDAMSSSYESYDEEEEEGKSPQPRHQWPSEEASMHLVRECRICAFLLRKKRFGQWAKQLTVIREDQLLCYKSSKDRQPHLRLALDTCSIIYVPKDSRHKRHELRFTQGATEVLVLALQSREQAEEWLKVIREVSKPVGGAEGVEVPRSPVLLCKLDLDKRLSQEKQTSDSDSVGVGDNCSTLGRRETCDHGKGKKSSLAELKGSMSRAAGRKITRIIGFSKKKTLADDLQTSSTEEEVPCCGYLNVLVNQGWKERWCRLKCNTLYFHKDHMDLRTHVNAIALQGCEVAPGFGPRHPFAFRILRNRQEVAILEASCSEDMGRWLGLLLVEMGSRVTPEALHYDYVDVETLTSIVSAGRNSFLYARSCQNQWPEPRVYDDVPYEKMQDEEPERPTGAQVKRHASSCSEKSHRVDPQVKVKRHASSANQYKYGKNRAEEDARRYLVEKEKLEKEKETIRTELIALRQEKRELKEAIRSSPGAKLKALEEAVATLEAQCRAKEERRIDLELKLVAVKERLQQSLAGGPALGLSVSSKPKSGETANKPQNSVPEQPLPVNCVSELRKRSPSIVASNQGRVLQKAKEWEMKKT

Experiment [1] concerns the target 3×HA-tagged vinculin (human) (UniProt P18206). The experiment in a line: co-IP; RKO cells transiently co-transfected with 3×Flag-AFAP1L1 and 3×HA-vinculin; lysates immunoprecipitated with an anti-HA Ab, immunoblotted with an anti-Flag Ab. For orientation: Immunoblotting shows a protein as a band on a membrane.
Experiment [2] deals with endogenous AFAP1L1 (human (endogenous in LoVo)) (UniProt Q8TED9). The experiment can be described thus: co-IP; LoVo whole cell lysates, endogenous proteins; immunoprecipitated with the anti-AFAP1L1 Ab, immunoblotted with Abs against vinculin or other invadopodia or focal adhesion proteins.

No constants are given. Whether binding was seen depends on the method and setting. Binding seen in cells or lysates may run through a third protein. Binding can be weak; no strength is given.

For the substance “3×Flag-tagged AFAP1L1 (actin filament-associated protein 1-like 1) (from UniProt Q8TED9 1-768)”, the binding entry in experiment [1] is “binds”.
Consider “endogenous vinculin (from UniProt P18206-2)”, for which, in experiment [2], the binding result is “binds”.
